The source of these data is US6780986.

These are yes or no findings as the source states them, for the method shown. Some binding calls cover weakened binding; strength is not graded here. Tags and fused reporters may be left off the sequences shown.

The target of the assay is GST-Z2-P123 (human) (UniProt Q9BWE0). Put plainly: gel shift multimers on DNA probe (self-association on DNA). A general note: A gel shift assay detects complexes by their altered migration in electrophoresis.

B1: GST-Z2-P123 (protein, not shown: a dimerising Fc or GST)
chain: GGDAVDRPFQCACCGKRFRHKPNLIAHRRVHTGERPHQCPECGKRFTNKPYLTSHRRIHTGEKPYPCKECGRRFRHKPNLLSHSKIHKRSEGSAQAAPGPGSPQLPAGPQESAAEPTPAVPLKPAQEPPPGAPPEHPQDPIEAPPSL
For B1, the binding entry was “binds”.
